# In PubChem BioAssay AID2685 (National Center for Advancing Translational Sciences (NCATS), 2010):
# The campaign covered roughly 320,000 compounds. About 2,100 (0.66%) were called active. This list was built around the results that the source calls inconclusive (neither active nor inactive); the mix of calls is not that of the screen. Calls come from the whole dose curve; as a rule, active = well fitted inhibition curve with a large enough effect in the signal ratio, with a control signal flat (not every such curve was filed as active); inconclusive = small, poorly fitted or top-dose-only effect, or effect the other way, or a change in a side signal; inactive = flat fitted curve, though single readings scatter; the % refers to the signal ratio. Potencies beside an inconclusive call are fits to weak or partial responses and may not hold up.
# Experiment: qHTS Assay for Lipid Storage Modulators in Drosophila S3 Cells
# Details: BODIPY lipid droplet fluorescence, 18-24 h, cells fed with added oleic acid; lipid storage change, negative = inhibition: at 46.1 µM (top of the series) unless noted
# Procedure, shortened: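 Laser-scanning cytometry quantifies lipid droplet accumulation (500–530 nm total intensity; droplet/cell object ratio) in oleic acid-fed (400 uM added) Drosophila S3 cells treated with a concentration series. 20 uM Triacsin C defined 100% inhibition.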
# % is set by controls: 0 for no effect and ±100 for the full control effect; potency is the fitted concentration of half-maximal effect.
SMILES,Potency,"lipid storage change, negative = inhibition"
O=C(Nc1cccc(S(=O)(=O)NCc2ccco2)c1)c1cc(-c2ccc(F)cc2)nc2ccccc12,"inconclusive: 9.2 µM [falling, single point]",–
CCOC(=O)c1c(C)[nH]c(C)c1C(=O)COC(=O)COc1ccc(Cl)c(C)c1,–,inconclusive
CC(=O)c1cccc(NC(=O)NCCS(C)=O)c1 (configuration not stated),–,inconclusive: -14.2%
COc1ccccc1N1CCN(C(c2cc3cc(C)ccc3[nH]c2=O)c2nnnn2C2CCCC2)CC1 (configuration not stated),–,inactive
O=S(=O)(Nc1nc2ccccc2[nH]1)c1ccc(Cl)cc1,"inconclusive: 0.13 µM [activator, full curve, poor fit]",–
NS(=O)(=O)c1ccc(-c2ccc(/C=C3\C(=O)Nc4ccccc43)o2)cc1,–,inconclusive: -39.8%
O=C(Nc1ccc(Cc2ccncc2)cc1)C1CCC(N2C(=O)C3CC=CCC3C2=O)CC1 (configuration not stated),–,inconclusive: 41.2%
CCC1(c2ccc(Cl)cc2)NC(=O)N(CC(=O)NC2CCCCCC2)C1=O (configuration not stated),–,inconclusive
O=C(NC(=S)Nc1ccc(N2CCOCC2)cc1)c1ccco1,–,inconclusive: -0.889%
NC(=O)CC(NC(=O)Cc1ccc(Cl)cc1)c1ccc(NCCCN2CCCC2=O)c([N+](=O)[O-])c1 (configuration not stated),"inconclusive: 25.9 µM [activator, single point]",–
CC(C)(O)c1[nH]c2ccc(C(F)(F)F)cc2c1C(C)(C)O,"inconclusive: 0.58 µM [falling, full curve, poor fit]",–
Cc1ccc(CNC(=O)C(Cc2ccccc2)NS(=O)(=O)c2cccs2)cc1 (configuration not stated),–,inactive
COc1cc(/C=c2\s/c(=C(/C#N)C(=O)N3CCCC3)n(-c3ccccc3)c2=O)ccc1O,"inconclusive: 1.84 µM [falling, full curve]",–
CCN1/C(=C(\O)c2ccccc2)C(=O)c2ccccc2S1(=O)=O,"inconclusive: 0.517 µM [falling, single point]",–
O=C(CSc1cc(Cl)ccc1Cl)Nc1ccc(N2CCOCC2)cc1,–,inconclusive: 5.91%
Cc1nc2c(C(=O)N3CCOCC3)cnn2c(C)c1Cc1cccc(Cl)c1,–,inconclusive: 5.33%
CC(=O)Nc1ccc(S(=O)(=O)N(C)CC(=O)OCC(=O)Nc2cc(C)on2)cc1,"inconclusive: 0.0041 µM [falling, full curve, poor fit]",–
CCOc1cccc(C2/C(=C(/O)c3ccc4c(c3)CC(C)O4)C(=O)C(=O)N2Cc2ccncc2)c1 (configuration not stated),–,inconclusive: -21.1%
CCCc1cc(=O)oc2cc(OCC(=O)NCCCN3CCCC3=O)ccc12,–,inconclusive: -100%
CN1C(=O)/C(=C\c2ccccc2)Sc2ccc(C(=O)N3CCN(c4ccccn4)CC3)cc21,–,inconclusive: -39.2%
COCCCNC(=O)c1ccc(CS(=O)(=O)c2cccc(C(F)(F)F)c2)o1,–,inconclusive: 9.77%
Cc1ccc(SC[C@H](C)CN2CC[C@H](C)CCC2=O)cc1,–,inconclusive: -68.8%
Cc1sc2nc(C(C)C)nc(SCC(=O)NC3CC3)c2c1C,"inconclusive: 29.1 µM [falling, single point]",–
Cn1c(=O)[nH]c(=O)c2c1nc(N1CCCCC1)n2CCSc1nc2ccccc2o1,–,inconclusive: 31.8% [at 9.22 µM]

SMILES,Potency,"lipid storage change, negative = inhibition"
COc1ccc(N=C2SC(CC(=O)Nc3ccc(F)cc3)C(=O)N2Cc2ccco2)cc1 (configuration not stated),–,inconclusive: -46.8%
Cc1ccc2c(C)c(C(=O)N3CCC(O)(c4ccccc4)CC3)oc2c1C,–,inconclusive: -10.8%
O=C(Nc1ccc2oc(-c3ccc(F)cc3)nc2c1)c1ccccc1F,"inconclusive: 3.66 µM [activator, partial curve]",–
CCc1cc(=O)oc2c3c(cc(OCC(=O)NCCC(=O)O)c12)OC(C)(C)CC3,–,inactive
COc1cccc(/C=C2\SC(=S)N(CCCC(=O)N(CCO)c3ccccc3)C2=O)c1,"inconclusive: 20.6 µM [falling, single point]",–
CCOC(=O)c1ccc(CNC(=O)c2cc(C(C)(C)C)oc2C)o1,"inconclusive: 20.6 µM [activator, partial curve]",–
CCc1nn(C(CC)C(=O)NCc2cccc(OC)c2)c(=O)c2cc3occc3n12 (configuration not stated),–,inactive
COCCCC1CCN(C(=O)c2cc(COc3cc(C)ccc3C)on2)CC1,–,inconclusive: 4.04%
Cc1ccccc1-n1c(-c2ccc(Cl)cc2)cnc1SCC(=O)NC1CCS(=O)(=O)C1 (configuration not stated),–,inconclusive: -35.1%
Cn1cc(CNC(=O)c2cc(COc3ccc4c(c3)CCCC4)on2)cn1,"inconclusive: 29.1 µM [activator, single point]",–
Cc1cc(Cl)ccc1OCC(=O)NNC(=O)C1CCN(c2ncnc3sc(C)c(C)c23)CC1,"inconclusive: 29.1 µM [falling, single point]",–
Cc1ccc(OCC(=O)N/N=C\c2cn(Cc3ccccc3)c3ccccc23)cc1C,–,inconclusive: 3.16%
COc1ccccc1Oc1ccc2c(c1)C(=O)N(CC(=O)O)C2=O,–,inconclusive: 11.4%
COc1cc(C(=O)O)c2ccccc2n1,–,inconclusive: 24%
CN(CCO)C(=O)C(c1ccccc1)c1ccccc1,–,inconclusive: -20.2%
Cc1ccc(C(=O)NC(=C(Cl)Cl)S(=O)(=O)c2ccccc2)cc1,"inconclusive: 23.1 µM [falling, single point]",–
Cc1cc(C(=O)NC2CCCc3c2cnn3-c2ccc(C)c(C)c2)no1 (configuration not stated),"inconclusive: 4.11 µM [falling, single point]",–
O=C(COC(=O)[C@@H]1CCCN1S(=O)(=O)c1ccccc1F)NCc1ccc2c(c1)OCO2,–,inconclusive: -4.51%
C/C(=N/NS(=O)(=O)c1ccc(C)cc1)c1c(O)c2ccccc2oc1=O,–,inconclusive: 12.4%
C=CCNC(=O)CCCOc1ccc(C)cc1,–,inconclusive: 6.93%
COc1cc(OC)c2c(-c3ccccc3)cc(=O)oc2c1C(CC(=O)N1CCN(c2ccccc2)CC1)c1ccc(N(C)C)cc1 (configuration not stated),–,inconclusive: -21.4%
Cc1cccc(OCC(=O)NCc2nnc3ccc(C(F)(F)F)cn23)c1C,–,inconclusive: 10.3%
C/C(CC(=O)Nc1c(C)cc(C)cc1C)=N\NC(=O)c1cnccn1,–,inconclusive: 34.2%

# Structural class: the compounds so far containing a COOH group.
SMILES,Potency,"lipid storage change, negative = inhibition"
CCc1cc(=O)oc2c3c(cc(OCC(=O)NCCC(=O)O)c12)OC(C)(C)CC3,–,inactive
COc1ccccc1Oc1ccc2c(c1)C(=O)N(CC(=O)O)C2=O,–,inconclusive: 11.4%
COc1cc(C(=O)O)c2ccccc2n1,–,inconclusive: 24%
